Test results as given in doi:10.1101/2023.03.28.534615.
These are yes or no findings as the source states them, for the method shown. Some binding calls cover weakened binding; strength is not graded here. Sequences can lack the tags named with a protein.

Protein sequences, listed by entry. Tags and fused reporters are not part of them. Lines headed by an entry give the natural chain unless they say otherwise; changes in a name come on top. Chains listed by the source or under a name are the forms on record and can include a tag or linker. Residues count along the entry.
UniProt Q9P7T4: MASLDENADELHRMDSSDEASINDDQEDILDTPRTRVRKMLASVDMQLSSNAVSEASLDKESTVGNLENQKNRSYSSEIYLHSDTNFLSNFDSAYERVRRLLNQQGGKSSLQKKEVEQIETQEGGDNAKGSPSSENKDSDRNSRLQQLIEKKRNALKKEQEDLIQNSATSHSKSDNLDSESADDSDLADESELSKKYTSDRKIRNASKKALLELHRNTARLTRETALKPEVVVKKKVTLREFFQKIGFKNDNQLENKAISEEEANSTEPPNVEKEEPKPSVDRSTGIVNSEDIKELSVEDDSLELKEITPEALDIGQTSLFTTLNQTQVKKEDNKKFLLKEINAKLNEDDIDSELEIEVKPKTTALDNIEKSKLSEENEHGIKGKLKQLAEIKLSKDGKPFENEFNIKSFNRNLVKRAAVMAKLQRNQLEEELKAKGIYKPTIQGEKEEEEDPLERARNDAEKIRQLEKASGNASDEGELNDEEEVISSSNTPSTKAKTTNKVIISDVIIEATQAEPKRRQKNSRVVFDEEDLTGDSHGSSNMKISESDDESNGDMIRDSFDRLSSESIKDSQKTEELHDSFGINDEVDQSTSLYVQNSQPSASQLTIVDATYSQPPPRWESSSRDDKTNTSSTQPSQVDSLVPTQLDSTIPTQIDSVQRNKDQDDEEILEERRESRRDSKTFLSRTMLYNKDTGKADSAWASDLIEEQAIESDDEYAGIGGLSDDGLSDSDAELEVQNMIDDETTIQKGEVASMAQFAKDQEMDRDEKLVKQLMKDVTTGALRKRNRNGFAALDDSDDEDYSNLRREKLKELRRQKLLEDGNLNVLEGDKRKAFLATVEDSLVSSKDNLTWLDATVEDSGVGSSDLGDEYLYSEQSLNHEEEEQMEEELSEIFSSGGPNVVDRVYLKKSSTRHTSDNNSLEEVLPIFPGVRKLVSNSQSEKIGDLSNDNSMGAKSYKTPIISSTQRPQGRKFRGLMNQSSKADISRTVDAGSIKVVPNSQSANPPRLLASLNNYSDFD
Mrc1-M (248-756 a.a., middle region) fused to the Gal4 DNA-binding domain: residues 248-756 of Q9P7T4
Mrc1-C (500-1019 a.a., C-terminal region) fused to the Gal4 DNA-binding domain: residues 500-1019 of Q9P7T4

How the values were obtained:
Experiment in all cases: two-hybrid
[1] = biological target: Full-length Mrc1 (Mrc1-F) fused to the Gal4 DNA-binding domain (S. pombe) (UniProt Q9P7T4)
[2] = biological target: Mrc1-C (500-1019 a.a., C-terminal region) fused to the Gal4 DNA-binding domain (S. pombe) (UniProt Q9P7T4)
[3] = biological target: Mrc1-M (248-756 a.a., middle region) fused to the Gal4 DNA-binding domain (S. pombe) (UniProt Q9P7T4)

B1: Full-length Clr3 fused to the Gal4 activation domain (protein, UniProt P56523 1-687)
chain: MLASNSDGASTSVKPSDDAVNTVTPWSILLTNNKPMSGSENTLNNESHEMSQILKKSGLCYDPRMRFHATLSEVDDHPEDPRRVLRVFEAIKKAGYVSNVPSPSDVFLRIPAREATLEELLQVHSQEMYDRVTNTEKMSHEDLANLEKISDSLYYNNESAFCARLACGSAIETCTAVVTGQVKNAFAVVRPPGHHAEPHKPGGFCLFNNVSVTARSMLQRFPDKIKRVLIVDWDIHHGNGTQMAFYDDPNVLYVSLHRYENGRFYPGTNYGCAENCGEGPGLGRTVNIPWSCAGMGDGDYIYAFQRVVMPVAYEFDPDLVIVSCGFDAAAGDHIGQFLLTPAAYAHMTQMLMGLADGKVFISLEGGYNLDSISTSALAVAQSLLGIPPGRLHTTYACPQAVATINHVTKIQSQYWRCMRPKHFDANPKDAHVDRLHDVIRTYQAKKLFEDWKITNMPILRDSVSNVFNNQVLCSSNFFQKDNLLVIVHESPRVLGNGTSETNVLNLNDSLLVDPVSLYVEWAMQQDWGLIDINIPEVVTDGENAPVDILSEVKELCLYVWDNYVELSISKNIFFIGGGKAVHGLVNLASSRNVSDRVKCMVNFLGTEPLVGLKTASEEDLPTWYYRHSLVFVSSSNECWKKAKRAKRRYGRLMQSEHTETSDMMEQHYRAVTQYLLHLLQKARPTSQ
Question: B1 was tested. Which binding [1] did it give?
Answer: Its binding is “binds”.

Question: And the binding [2]?
Answer: Its binding is “binds”.

Question: What about the binding [3] of the same binder?
Answer: The binding was “no binding”.
